# Results reported in patent US5624897A (Bayer Aktiengesellschaft, priority 1993, dated 1997).
# Test: general procedure: solution-phase peptide synthesis; BOP-Cl / N,N-diisopropylethylamine
Substance,step yield (late stage modification step),step yield (coupling step),other results
Cyclo(-N-methyl-L-alanyl-D-lactyl-N-methyl-L-isoleucyl-D-lactyl-N-methyl-L-isoleucyl-D-lactyl-),,,"cyclisation yield (cyclisation step, on linear precursor): 59.8% of theory"
N-benzyl-N-methyl-L-alanyl-D-lactyl-N-methyl-L-isoleucyl-D-lactyl-N-methyl-L-isoleucyl-D-lactic acid,99.5% of theory,,
N-benzyl-N-methyl-L-isoleucyl-D-lactic acid,100% of theory,,
N-benzyloxycarbonyl-N-methyl-L-alanyl-D-lactyl-N-methyl-L-isoleucyl-D-lactyl-N-methyl-L-isoleucyl-D-lactic acid,85.3% of theory,,
N-methyl-L-alanyl-D-lactyl-N-methyl-L-isoleucyl-D-lactyl-N-methyl-L-isoleucyl-D-lactic acid,98.7% of theory,,
tert-Butyl N-methyl-L-isoleucyl-D-lactyl-N-methyl-L-alanyl-D-lactate,83.2% of theory,,
tert-butyl N-benzyl-N-methyl-L-alanyl-D-lactyl-N-methyl-L-alanyl-D-lactate,,36.9% of theory,
tert-butyl N-benzyl-N-methyl-L-alanyl-D-lactyl-N-methyl-L-isoleucyl-D-lactate,,100% of theory,
tert-butyl N-benzyl-N-methyl-L-alanyl-D-lactyl-N-methyl-L-isoleucyl-D-lactyl-N-methyl-L-isoleucyl-D-lactate,,57.8% of theory,
tert-butyl N-benzyl-N-methyl-L-isoleucyl-D-lactyl-N-methyl-L-alanyl-D-lactate,,60.4% of theory,
tert-butyl N-benzyl-N-methyl-L-isoleucyl-D-lactyl-N-methyl-L-isoleucyl-D-lactate,,98.8% of theory,
tert-butyl N-benzyloxycarbonyl-N-methyl-L-alanyl-D-lactyl-N-methyl-L-isoleucyl-D-lactyl-N-methyl-L-isoleucyl-D-lactate,,59.9% of theory,
tert-butyl N-methyl-L-alanyl-D-lactyl-N-methyl-L-alanyl-D-lactate,89.5% of theory,,
tert-butyl N-methyl-L-alanyl-D-lactyl-N-methyl-L-isoleucyl-D-lactate,98.0% of theory,,
tert-butyl N-methyl-L-isoleucyl-D-lactyl-N-methyl-L-isoleucyl-D-lactate,85.4% of theory,,
